Measurements published in patent US5837548A, “Treatment of inflammation by inhibition of lipid body formation” (Beth Israel Hospital, priority 1995, dated 1998).

Tested on: human neutrophils
Assay: cis-unsaturated fatty acid-induced lipid body formation in human neutrophils (osmium staining, light microscopy enumeration)
Type: cell-based
Method: Neutrophils were purified from fresh human blood obtained by venipuncture from healthy adult volunteers and collected into acidified citrate. After addition of 6% dextran 70 (McGaw, Irvine, Calif.), RBCs were allowed to sediment for 1 hour at room temperature. The leukocyte-rich supernatant was overlaid onto an equal volume of Ficoll-Paque gradient (Piscataway, N.J.), and centrifuged at 400×g for 20 min. […] Residual RBCs were lysed with hypotonic saline.
Human leukocytes (10^6 cells/mL) were incubated with varying concentrations of arachidonic acid (AA), oleic acid (OA) or vehicle at 37° C. in a 5% CO2 /95% O2 atmosphere, and after 1 hour leukocytes (10^5 cells per slide) were cytocentrifuged (550 rpm, 5 min) onto glass slides. […]
Results were expressed as mean±SEM and were analyzed statistically by means of the analysis of variance followed by the Newman-Keuls-Student test with the level of significance set at p<0.05. Correlation coefficients were determined by linear regression, and correlation analysis was performed by Fisher's r to z transformation with the level of significance set at p<0.05. […]
Results are mean ± SEM from fifty consecutively counted neutrophils. […]
calculated after subtracting out the basal number of lipid bodies/PMN […]
± SEM from fifty consecutively counted neutrophils. […]
represented by an asterisk (*). Percent inhibition has been calculated […]

CN[C@@H]1C[C@H]2O[C@@](C)([C@@H]1OC)n1c3ccccc3c3c4c(c5c6ccccc6n2c5c31)C(=O)NC4 [staurosporine]
inhibition of arachidonic acid-induced lipid body formation: significantly inhibited
inhibition of oleic acid-induced lipid body formation: significantly inhibited
